From paper PMC10049986

Legend:
Assay in all cases: affinity purification with mass spectrometry; native and formaldehyde cross-linked IP-MS from floral buds of FLAG-TRB1, 2 and 3 lines with Col-0 as control; anti-FLAG M2 magnetic beads, 4 °C, 2 h; eluted with 3X FLAG peptides; results of the two formats are told together
[1] = target: T1, pTRB:TRB-FLAG TRB1 (Telomere Repeat Binding factor 1 with 3xFLAG) (Arabidopsis thaliana) (UniProt Q8VWK4)
T1 sequence: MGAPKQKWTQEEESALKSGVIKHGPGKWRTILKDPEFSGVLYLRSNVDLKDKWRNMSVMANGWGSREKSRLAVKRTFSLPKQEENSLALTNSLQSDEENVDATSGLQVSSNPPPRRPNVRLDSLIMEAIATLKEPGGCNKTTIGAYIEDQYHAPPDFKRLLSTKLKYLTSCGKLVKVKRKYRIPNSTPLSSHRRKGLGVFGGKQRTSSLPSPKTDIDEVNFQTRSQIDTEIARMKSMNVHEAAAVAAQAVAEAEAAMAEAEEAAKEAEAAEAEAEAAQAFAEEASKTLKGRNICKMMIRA

[2] = target: T2, pTRB:TRB-FLAG TRB2 (Telomere Repeat Binding factor 2 with 3xFLAG) (Arabidopsis thaliana) (UniProt Q9FJW5)
T2 sequence: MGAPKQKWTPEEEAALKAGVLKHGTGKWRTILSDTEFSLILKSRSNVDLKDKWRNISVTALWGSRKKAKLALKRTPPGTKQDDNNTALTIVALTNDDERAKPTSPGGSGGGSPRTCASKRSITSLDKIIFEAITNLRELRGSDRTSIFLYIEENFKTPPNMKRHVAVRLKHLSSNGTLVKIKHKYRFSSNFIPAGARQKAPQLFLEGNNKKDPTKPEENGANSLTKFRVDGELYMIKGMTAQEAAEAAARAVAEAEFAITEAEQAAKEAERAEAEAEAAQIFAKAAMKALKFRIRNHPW

[3] = target: T3, pTRB:TRB-FLAG TRB3 (Telomere Repeat Binding factor 3 with 3xFLAG) (Arabidopsis thaliana) (UniProt Q9M2X3)
T3 sequence: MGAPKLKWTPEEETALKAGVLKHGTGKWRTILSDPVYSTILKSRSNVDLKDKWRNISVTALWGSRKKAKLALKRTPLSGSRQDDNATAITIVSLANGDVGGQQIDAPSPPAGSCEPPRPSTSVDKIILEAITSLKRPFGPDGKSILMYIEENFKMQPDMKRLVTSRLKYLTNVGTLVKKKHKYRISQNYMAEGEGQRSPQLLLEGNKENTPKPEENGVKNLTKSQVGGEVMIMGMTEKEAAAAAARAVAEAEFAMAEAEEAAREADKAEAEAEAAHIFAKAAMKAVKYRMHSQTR

[4] = target: T4, pTRB:TRB-FLAG TRB1 (Telomere Repeat Binding factor 1 with 3xFLAG) (Arabidopsis thaliana), Q8VWK4; conditions: remark: other sources report otherwise
T4 chain: T1 sequence

[5] = target: T5, pTRB:TRB-FLAG TRB2 (Telomere Repeat Binding factor 2 with 3xFLAG) (Arabidopsis thaliana), Q9FJW5; conditions: remark: other sources report otherwise
T5 chain: T2 sequence

[6] = target: T6, pTRB:TRB-FLAG TRB3 (Telomere Repeat Binding factor 3 with 3xFLAG) (Arabidopsis thaliana), Q9M2X3; conditions: remark: other sources report otherwise
T6 chain: T3 sequence

B2: JUMONJI14 (JMJ14), endogenous, Q8GUI6 1-954 (protein)
chain: MDQLASLAESVAMEEDSEKQSIKGESSLEPDSTPSSPKITARWNPSEACRPLVDDAPIFYPTNEDFDDPLGYIEKLRSKAESYGICRIVPPVAWRPPCPLKEKKIWENSKFPTRIQFIDLLQNREPIKKSTKTKKRKRRRISKIGYTRRKRDSGCDTASSGSSDSEGKFGFQTGPDFTLEEFQKYDEYFKECYFQSEDHPGSKASENKKFKPKVKDLEGEYWRIVEQATDEVEVYYGADLETKKFGSGFPKYKPGYPISEADQYSQCGWNLNNLSRLPGSVLAFESCDISGVIVPWLYVGMCFSTFCWHVEDHHLYSMNYLHTGDPKVWYGIPGNHAESFENVMKKRLPDLFEEQPDLLHQLVTQLSPRILKEEGVPVYRAVQRSGEFILTFPKAYHSGFNCGFNCAEAVNVAPVDWLVHGQNAVEGYSKQRRKSSLSHDKLLLGAAMEATYCLWELSLSKKKTPVIARWKRVCSEDGLLTKAVKKRVQMEEERLNHLQDGFSLRKMEGDFDNKRERECFLCFYDLHMSASSCKCSPNRFACLIHAKDLCSCESKDRYILIRHTLDELWALVRALEGDLDAIDLWASKCRDQYPSQHPRAREYAYLKSAPCIKSRGSSKVQQREQNNLQLVSERLQSDLTSNKEVQLKQDGDSDVNRHGHESERNHVHGITDKSAVTDVKLGVGGKFDEKKISVESQNPHSVSDVGCSELAKKVDGCLGGKDQNAATNRLSLSVELLSSGSLVVKKLWCSKQAIYPKGFKSRVKFLSVLDPTNLTNYISEVLDAGLLGPLFRVSVEDYPTENFSNVSAEKCWQMVTQRLKLEIIKKCDQPVSSLTSLQPLESINGLEMFGFLSPHVIKVVEALDPKHQLEEYWNQKAVKLFGAEPIKEGEKDDTEKGGASDPSLDRDTRLLRGLLKKATPEELVMMHGLLCGETRNTELKEELSTLVDKMEISP
binding [4]: binds
binding [5]: binds
binding [6]: binds

B3: LIKE HETEROCHROMATIN PROTEIN1 (LHP1), endogenous, Q946J8 1-445 (protein)
chain: MKGASGAVKKKPQVLNEAGEAETAVETVGESRKISGDGGFGSDDGGGGGGGGSGESILREIGDDRPTEDGDEEEEEDEDEDDGGDEEDEEGEGEGGQEERPKLDEGFYEIEAIRRKRVRKGKVQYLIKWRGWPETANTWEPLENLQSIADVIDAFEGSLKPGKPGRKRKRKYAGPHSQMKKKQRLTSTSHDATEKSDSSTSLNNSSLPDIPDPLDLSGSSLLNRDVEAKNAYVSNQVEANSGSVGMARQVRLIDNEKEYDPTLNELRGPVNNSNGAGCSQGGGIGSEGDNVRPNGLLKVYPKELDKNSRFIGAKRRKSGSVKRFKQDGSTSNNHTAPTDQNLTPDLTTLDSFGRIARMGNEYPGVMENCNLSQKTKIEELDITKILKPMSFTASVSDNVQEVLVTFLALRSDGKEALVDNRFLKAHNPHLLIEFYEQHLKYNRTP
binding [4]: binds

B4: LIKE HETEROCHROMATIN PROTEIN1 (LHP1), endogenous (protein, UniProt Q946J8 1-445)
chain: B3 chain
binding [2]: binds
binding [3]: binds

Other lines, results leading:

binding [1]: binds
binding [2]: binds
binding [3]: binds
B1: PRC2 accessory protein ICU11, endogenous (protein, UniProt Q3ED68 1-397)
chain: MCNQTPLRSMALDSSGKQPEQQQQQQPRASSGNGEARLKLRRTPNEEHEPENYEDLPLDYSPSLFTSLERYLPEQLLNSTRIDKASFMRDLLLRYSPDTERVRVLRHKEYRDKIMSSYQRLHGEIYTLDPSSFFAPSFLGAFSRKSEPNFRSSMVESYPGIFTFEMFKPQFCEMLLAEVEHMEKWVYDSRSTIMRPNTMNNFGVVLDDFGFDSMLQKLVDDFISPIAQVLFPEVCGTSLDSHHGYIVEYGKDRDVDLGFHVDDSEVSLNVCLGKQFSGGELYFRGVRCDKHVNSDSTEKEVYDYSHVPGHAILHRGRHRHGARATTSGHRANLILWCRSSTFREMKNYQRDFSGWCGGCKLDKQRRQRDSINATKEILARKAAEKTLVELASKSCAE

binding [4]: binds
binding [5]: binds
binding [6]: binds
B5: NAC052, endogenous, Q9SQY0 1-451 (protein)
chain: MGRESVAVVTAPPSATAPGTASVATSLAPGFRFHPTDEELVSYYLKRKVLGQPVRFDAIGEVDIYKHEPWDLAVFSRLKTRDQEWYFYSALDKKYGNGARMNRATNRGYWKATGKDREIRRDILLLGMKKTLVFHSGRAPDGLRTNWVMHEYRLVEYETEKNGNLVQDAYVLCRVFHKNNIGPPSGNRYAPFMEEEWADDEGALIPGIDVKLRLEPPPVANGNDQMDQEIQSASKSLININEPPRETAPLDIESDQQNHHENDLKPEEHNNNNNYDENEETLKREQMEEEERPPRPVCVLNKEAPLPLLQYKRRRQSESNNNSSRNTQDHCSSTTTTVDNTTTLISSSAAATNTAISALLEFSLMGISDKKEKPQQPLRPHKEPLPPQTPLASPEEKVNDLQKEIHQMSVERETFKLEMMSAEAMISILQSRIDALRQENEELKKNNANGQ

binding [1]: binds
B6: NAC050, endogenous (protein, UniProt Q9SQX9 1-447)
chain: MGRESLAVVSSPPSATAPSTAVSATSLAPGFRFHPTDEELVSYYLKRKVLGKPVRFDAIGEVDIYKHEPWDLAVFSKLKTRDQEWYFFSALDKKYGNGARMNRATNKGYWKATGKDREIRRDIQLLGMKKTLVFHSGRAPDGLRTNWVMHEYRLVEYETETNGSLLQDAYVLCRVFHKNNIGPPSGNRYAPFMEEEWADGGGALIPGIDVRVRVEALPQANGNNQMDQEMHSASKDLININELPRDATPMDIEPNQQNHHESAFKPQESNNHSGYEEDEDTLKREHAEEDERPPSLCILNKEAPLPLLQYKRRRQNESNNNSSRNTQDHCSSTITTVDNTTTLISSSAAAATNTAISALLEFSLMGISDKKENQQKEETSPPSPIASPEEKVNDLQKEVHQMSVERETFKLEMMSAEAMISILQSRIDALRQENEELKKKNASGQAS

binding [5]: binds
binding [6]: binds
B7: NAC050, endogenous, Q9SQX9 1-447 (protein)
chain: B6 chain

Results are given in words; binding and its absence hold for the method and conditions named. In cells and extracts the contact can be indirect. A yes stands for co-enrichment or nearness to the bait. Other partners may have been found. Tags and fused reporters may be left off the sequences shown. Each block holds one binder with its values, some of them ahead of it.
